# Measured values taken from PubChem BioAssay AID330 (DTP/NCI, 2004).
# The list is a part of this screen's results and no random one: it gathers tests that were run many times, whatever their T/C, doses with no T/C, and many T/C values between a quarter and a half above the control. Other doses and runs of a compound stand elsewhere. T/C is the treated group as % of the vehicle group. Some entries give survivors of the animals treated and no T/C: the source holds a T/C of zero for them, seemingly a mark for toxic or unscored doses. Some doses without a T/C left all or most animals alive at the check, yet need not have been tolerated: survival well below the control is almost never listed, so the zero probably covers shortened survival too. Counts of survivors are from the toxicity check (mostly the fifth day) where no day follows; animals may have died later. Schedule codes are those of the source, taken here to give the interval after Q, in days (D) or hours (H), and the number of doses after X. Some entries hold several experiments; the values are given in rising order. Where survival is the endpoint, this PubChem deposit counts one and a half times the control or more as active, and values a quarter to a half above the control carry no call in these data; other NCI protocols may use other cut-offs. Some T/C values carry the count of animals alive at the toxicity check (mostly the fifth day); without a count, all were alive then.
# System: P388 leukemia ip, CD2F1 mice, survival T/C
# Assay: NCI In Vivo Anticancer Drug Screen. Data for tumor model P388 Leukemia (intraperitoneal) in CD2F1 (CDF1) mice
# Conditions: T/C endpoint: median survival time, higher T/C = longer survival
# [1] = dose: 100.0 mg/kg/injection, schedule: Q01DX009 (ip), vehicle: Klucel (hydroxypropylcellulose) (HPC)
# [2] = dose: 200.0 mg/kg/injection, schedule: Q01DX009 (ip), vehicle: Klucel (hydroxypropylcellulose) (HPC)
# [3] = dose: 100.0 mg/kg/injection, schedule: Q01DX005 (ip), vehicle: Klucel (hydroxypropylcellulose) (HPC)
# [4] = dose: 200.0 mg/kg/injection, schedule: Q01DX005 (ip), vehicle: Klucel (hydroxypropylcellulose) (HPC)
# [5] = dose: 200.0 mg/kg/injection, schedule: Q04DX003 (ip), vehicle: saline with Tween-80
# [6] = dose: 400.0 mg/kg/injection, schedule: Q01DX009 (ip), vehicle: saline with Tween-80
# [7] = dose: 400.0 mg/kg/injection, schedule: Q04DX003 (ip), vehicle: saline with Tween-80
# [8] = dose: 25.0 mg/kg/injection, schedule: Q01DX009 (ip), vehicle: Klucel (hydroxypropylcellulose) (HPC)
# [9] = dose: 200.0 mg/kg/injection, schedule: Q01DX009 (ip), vehicle: saline with Tween-80
# [10] = dose: 25.0 mg/kg/injection, schedule: Q01DX009 (ip), vehicle: saline with Tween-80
# [11] = dose: 50.0 mg/kg/injection, schedule: Q01DX009 (ip), vehicle: saline with Tween-80
# [12] = dose: 100.0 mg/kg/injection, schedule: Q04DX003 (ip), vehicle: saline with Tween-80
# [13] = dose: 25.0 mg/kg/injection, schedule: Q01DX009 (ip), vehicle: saline
# [14] = dose: 50.0 mg/kg/injection, schedule: Q01DX009 (ip), vehicle: saline
# [15] = dose: 50.0 mg/kg/injection, schedule: Q01DX005 (ip), vehicle: saline with Tween-80
# [16] = dose: 100.0 mg/kg/injection, schedule: Q01DX009 (ip), vehicle: saline with Tween-80
# [17] = dose: 100.0 mg/kg/injection, schedule: Q01DX001 (ip), vehicle: saline
# [18] = dose: 200.0 mg/kg/injection, schedule: Q01DX001 (ip), vehicle: saline
# [19] = dose: 400.0 mg/kg/injection, schedule: Q01DX001 (ip), vehicle: saline
# [20] = dose: 100.0 mg/kg/injection, schedule: Q01DX005 (ip), vehicle: saline with Tween-80
# [21] = dose: 200.0 mg/kg/injection, schedule: Q01DX005 (ip), vehicle: saline with Tween-80
structure (smiles),measurement,setting,value
COc1cccc2c1C(=O)c1c(O)c3c(c(O)c1C2=O)C[C@@](O)(C(=O)CN1CCN(C)CC1)C[C@@H]3OC1CC(N)C(O)C(C)O1 (some centres not stated),T/C,"dose: 5.56 mg/kg/injection, schedule: Q01DX009 (ip), vehicle: water",137 % of control
same,T/C,"dose: 6.25 mg/kg/injection, schedule: Q01DX009 (ip), vehicle: water",141 % of control
same,T/C,"dose: 8.33 mg/kg/injection, schedule: Q01DX009 (ip), vehicle: water",144 % of control
same,T/C,"dose: 12.5 mg/kg/injection, schedule: Q01DX009 (ip), vehicle: water",147 % of control
same,T/C,"dose: 50.0 mg/kg/injection, schedule: Q01DX001 (ip), vehicle: water",129 % of control
same,survivor count,"dose: 50.0 mg/kg/injection, schedule: Q01DX009 (ip), vehicle: water",6 of 6
same,T/C,"dose: 100.0 mg/kg/injection, schedule: Q01DX001 (ip), vehicle: water",137 % of control
same,survivor count,"dose: 200.0 mg/kg/injection, schedule: Q01DX001 (ip), vehicle: water",0 of 6
same,survivor count,"dose: 400.0 mg/kg/injection, schedule: Q01DX001 (ip), vehicle: water",0 of 6
COc1ccc(C[Se][Se]Cc2ccc(OC)cc2)cc1,survivor count,"dose: 50.0 mg/kg/injection, schedule: Q01DX009 (ip), vehicle: Klucel (hydroxypropylcellulose) (HPC)",6 of 6
same,survivor count,[1],3 of 6
same,survivor count,[2],0 of 6
c1cc(-c2[nH]c3cc(C4=NCCN4)ccc3c2-c2cc3ccc(C4=NCCN4)cc3[nH]2)ccc1C1=NCCN1,survivor count,"dose: 50.0 mg/kg/injection, schedule: Q01DX005 (ip), vehicle: Klucel (hydroxypropylcellulose) (HPC)",0 of 5
same,survivor count,[3],1 of 5
same,survivor count,[4],0 of 5
CCOC(=O)C(Cc1ccccc1)NC(=O)N(CCCl)CCCl (configuration not stated),survivor count,[5],6 of 6
same,T/C,"dose: 264.0 mg/kg/injection, schedule: Q01DX009 (ip), vehicle: saline with Tween-80",136 % of control
same,T/C,[6],136 and 140 % of control
same,T/C,[7],145 % of control
same,T/C,"dose: 600.0 mg/kg/injection, schedule: Q01DX009 (ip), vehicle: saline with Tween-80",131 % of control
O=P(O)(O)c1ccccc1P(=O)(O)O,survivor count,"dose: 240.0 mg/kg/injection, schedule: Q01DX005 (ip), vehicle: saline",0 of 6
CC1(C(Cl)(Cl)Cl)C=CC(=O)C=C1,survivor count,[6],3 of 6
O=S(=O)(CCCl)c1ccc2ccccc2c1,survivor count,[8],6 of 6
same,survivor count,[1],3 of 6
CSc1ccc(SC)c2c1C(=O)c1c(SC)ccc(SC)c1C2=O,survivor count,[9],5 of 6
CC(=O)[O][Hg][c]1c(N)c(Cl)cc(C)c1F,survivor count,"dose: 12.5 mg/kg/injection, schedule: Q01DX009 (ip), vehicle: Klucel (hydroxypropylcellulose) (HPC)",3 of 5
same,survivor count,[8],0 of 6
O=C(CBr)c1ccc(F)cc1,survivor count,[10],3 of 6
same,survivor count,[11],2 of 6
same,survivor count,[12],5 of 6
Cn1nnc(-c2cccc(F)c2)n1,survivor count,[3],5 of 5
BrC1CC(Br)c2c1c1c(c3c2C(Br)CC3Br)C(Br)CC1Br (configuration not stated),T/C,[10],127 % of control
same,T/C,[11],147 % of control
C=C(C)C1CC=C(CCCC(C)COC2OCC(OC(=O)/C(C)=C/CCC3=CCC(C(=C)C)CC3O)C(O)C2O)CC1 (configuration not stated),survivor count,"dose: 86.0 mg/kg/injection, schedule: Q01DX005 (ip), vehicle: Klucel (hydroxypropylcellulose) (HPC)",0 of 6
CC(=O)NC1=C(N2CC2C)C(=O)C(NC(C)=O)=C(N2CC2C)C1=O (configuration not stated),T/C,"dose: 12.5 mg/kg/injection, schedule: Q01DX009 (ip), vehicle: saline",145 % of control
same,survivor count,[13],6 of 6
same,survivor count,[14],5 of 6
Clc1ccc2nc(CBr)cnc2c1,survivor count,[11],5 of 6
Cc1ccc2nc(N)nnc2c1,survivor count,[2],1 of 6
CC(=O)CC(c1ccccc1)C(C#N)c1ccccc1 (configuration not stated),survivor count,"dose: 50.0 mg/kg/injection, schedule: Q04DX003 (ip), vehicle: Klucel (hydroxypropylcellulose) (HPC)",6 of 6
same,survivor count,"dose: 100.0 mg/kg/injection, schedule: Q04DX003 (ip), vehicle: Klucel (hydroxypropylcellulose) (HPC)",6 of 6
same,survivor count,"dose: 200.0 mg/kg/injection, schedule: Q04DX003 (ip), vehicle: Klucel (hydroxypropylcellulose) (HPC)",6 of 6
O=C1c2cccc3cc([N+](=O)[O-])cc(c23)C(=O)N1Cc1cccnc1,survivor count,[15],6 of 6
CCCCCCCCCCCCCCCCC(C(=O)O)C(O)(CC(=O)O)C(=O)O (configuration not stated),survivor count,[9],0 of 3
same,survivor count,[6],0 of 3
FC(F)(F)c1ccccc1NC(=S)SCc1ccco1,survivor count,"dose: 200.0 mg/kg/injection, schedule: Q01DX009 (ip), vehicle: suspension in saline",5 of 6
COc1cc(NS(C)(=O)=O)ccc1Nc1c2ccc(Cl)cc2nc2c(OC)cccc12,T/C,"dose: 3.13 mg/kg/injection, schedule: Q04DX003 (ip), vehicle: saline with Tween-80",145 % of control
CC(=S)NC(O)C(=O)c1ccccc1 (configuration not stated),T/C,[11],135 % of control
same,T/C,[16],129 and 133 % of control [5 of 6 alive]
same,T/C,[9],126 [5 of 6 alive] and 134 % of control
same,T/C,[6],128 % of control [5 of 6 alive]
CCC(c1ccc2cc(OC)ccc2c1)C(C)(C)C(=O)F (configuration not stated),T/C,[10],127 % of control
same,T/C,[11],127 % of control
same,survivor count,[16],1 of 6
same,survivor count,[12],4 of 6
same,survivor count,[5],4 of 6
same,survivor count,[7],0 of 6
COc1cc2nc(N3CCN(C(=O)c4ccco4)CC3)nc(N)c2cc1OC,survivor count,[11],2 of 6
same,survivor count,[16],0 of 6
same,survivor count,[9],0 of 6
[CH3][Sn]([CH3])([CH3])[O]C(=O)CNC(=O)c1ccccc1,survivor count,"dose: 6.25 mg/kg/injection, schedule: Q01DX001 (ip), vehicle: Klucel (hydroxypropylcellulose) (HPC)",0 of 6
same,survivor count,[17],0 of 6
same,survivor count,[18],0 of 6
same,survivor count,[19],0 of 6
Cc1nc(N)c(Cn2ccc(=O)n(Cc3c[n+](C)c(C)nc3N)c2=O)c[n+]1C,survivor count,[17],0 of 6
same,survivor count,[18],0 of 6
same,survivor count,[19],0 of 6
C=CC1=NC(C)(C)CC(C)O1 (configuration not stated),survivor count,"dose: 25.0 mg/kg/injection, schedule: Q01DX009 (ip), vehicle: water",1 of 6
O=S1(=O)c2cccc(c2)NC(=S)/C([n+]2ccccc2)=C(/[O-])c2ccc(cc2)CC2CCCCN21 (configuration not stated),survivor count,[4],6 of 6
COc1ccc2c(C)cc(N/N=C/c3cccc(C)n3)nc2c1,survivor count,"dose: 400.0 mg/kg/injection, schedule: Q01DX005 (ip), vehicle: Klucel (hydroxypropylcellulose) (HPC)",0 of 6
CCOC(=O)c1sc(=S)n(C)c1C,survivor count,[20],1 of 6
same,survivor count,[21],0 of 6
BrC1c2ccccc2-c2nc3ccccc3nc21 (configuration not stated),survivor count,[3],4 of 6
same,survivor count,[4],0 of 6
O=[N+]([O-])[O-].OCCNCCNCC[OH2+].OCCNCCNCC[OH2+].[Ni+2],survivor count,[13],6 of 6
same,survivor count,[14],6 of 6
C[N+]1(CC(=O)O)C2CCC1CC(O)C2 (configuration not stated),T/C,"dose: 100.0 mg/kg/injection, schedule: Q01DX009 (ip), vehicle: saline",138 % of control
FC(F)Oc1ccccc1,T/C,[9],135 % of control
CC(=O)OCc1ccc(O)c(C=O)c1,T/C,"dose: 25.0 mg/kg/injection, schedule: Q01DX005 (ip), vehicle: saline with Tween-80",125 % of control
same,T/C,[15],128 % of control
same,survivor count,[20],3 of 6 and 4 of 6
same,survivor count,[21],0 of 6
